Some of the results follow. Most values lie at the level of the controls, where differences are scatter.

The chains behind the UniProt entries cited, without tags or fusion partners. Where a name states a change or a piece, a line headed by the entry shows the natural chain unless it says otherwise.
UniProt Q9C0H5: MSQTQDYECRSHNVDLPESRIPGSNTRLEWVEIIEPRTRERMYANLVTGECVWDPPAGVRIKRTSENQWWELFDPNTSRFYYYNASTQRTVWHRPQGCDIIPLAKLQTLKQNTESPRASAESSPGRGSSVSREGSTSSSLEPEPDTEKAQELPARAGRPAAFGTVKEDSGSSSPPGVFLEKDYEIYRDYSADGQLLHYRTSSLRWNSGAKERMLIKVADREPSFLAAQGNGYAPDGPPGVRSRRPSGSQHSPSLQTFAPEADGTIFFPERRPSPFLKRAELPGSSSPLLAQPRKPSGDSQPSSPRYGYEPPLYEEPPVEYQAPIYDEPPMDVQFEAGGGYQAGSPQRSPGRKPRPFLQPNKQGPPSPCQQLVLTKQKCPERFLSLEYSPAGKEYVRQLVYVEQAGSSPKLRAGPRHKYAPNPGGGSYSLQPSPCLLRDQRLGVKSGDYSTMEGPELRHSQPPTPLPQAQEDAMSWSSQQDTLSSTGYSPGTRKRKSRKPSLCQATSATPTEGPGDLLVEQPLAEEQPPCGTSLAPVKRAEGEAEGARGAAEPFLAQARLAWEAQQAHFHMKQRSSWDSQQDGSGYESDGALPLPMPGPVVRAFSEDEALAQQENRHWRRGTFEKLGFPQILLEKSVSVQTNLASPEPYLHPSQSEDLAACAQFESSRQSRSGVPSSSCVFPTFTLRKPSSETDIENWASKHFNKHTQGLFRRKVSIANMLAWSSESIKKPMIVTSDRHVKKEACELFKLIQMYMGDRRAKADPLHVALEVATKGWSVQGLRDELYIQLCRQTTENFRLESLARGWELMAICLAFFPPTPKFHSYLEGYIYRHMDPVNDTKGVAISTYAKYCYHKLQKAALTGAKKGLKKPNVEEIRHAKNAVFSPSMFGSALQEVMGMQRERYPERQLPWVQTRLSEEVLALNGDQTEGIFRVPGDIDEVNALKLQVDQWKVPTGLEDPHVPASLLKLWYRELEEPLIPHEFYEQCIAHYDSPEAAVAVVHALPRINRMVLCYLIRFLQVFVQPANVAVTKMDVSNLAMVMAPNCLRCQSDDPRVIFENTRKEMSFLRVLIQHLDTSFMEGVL
UniProt Q9BVV6: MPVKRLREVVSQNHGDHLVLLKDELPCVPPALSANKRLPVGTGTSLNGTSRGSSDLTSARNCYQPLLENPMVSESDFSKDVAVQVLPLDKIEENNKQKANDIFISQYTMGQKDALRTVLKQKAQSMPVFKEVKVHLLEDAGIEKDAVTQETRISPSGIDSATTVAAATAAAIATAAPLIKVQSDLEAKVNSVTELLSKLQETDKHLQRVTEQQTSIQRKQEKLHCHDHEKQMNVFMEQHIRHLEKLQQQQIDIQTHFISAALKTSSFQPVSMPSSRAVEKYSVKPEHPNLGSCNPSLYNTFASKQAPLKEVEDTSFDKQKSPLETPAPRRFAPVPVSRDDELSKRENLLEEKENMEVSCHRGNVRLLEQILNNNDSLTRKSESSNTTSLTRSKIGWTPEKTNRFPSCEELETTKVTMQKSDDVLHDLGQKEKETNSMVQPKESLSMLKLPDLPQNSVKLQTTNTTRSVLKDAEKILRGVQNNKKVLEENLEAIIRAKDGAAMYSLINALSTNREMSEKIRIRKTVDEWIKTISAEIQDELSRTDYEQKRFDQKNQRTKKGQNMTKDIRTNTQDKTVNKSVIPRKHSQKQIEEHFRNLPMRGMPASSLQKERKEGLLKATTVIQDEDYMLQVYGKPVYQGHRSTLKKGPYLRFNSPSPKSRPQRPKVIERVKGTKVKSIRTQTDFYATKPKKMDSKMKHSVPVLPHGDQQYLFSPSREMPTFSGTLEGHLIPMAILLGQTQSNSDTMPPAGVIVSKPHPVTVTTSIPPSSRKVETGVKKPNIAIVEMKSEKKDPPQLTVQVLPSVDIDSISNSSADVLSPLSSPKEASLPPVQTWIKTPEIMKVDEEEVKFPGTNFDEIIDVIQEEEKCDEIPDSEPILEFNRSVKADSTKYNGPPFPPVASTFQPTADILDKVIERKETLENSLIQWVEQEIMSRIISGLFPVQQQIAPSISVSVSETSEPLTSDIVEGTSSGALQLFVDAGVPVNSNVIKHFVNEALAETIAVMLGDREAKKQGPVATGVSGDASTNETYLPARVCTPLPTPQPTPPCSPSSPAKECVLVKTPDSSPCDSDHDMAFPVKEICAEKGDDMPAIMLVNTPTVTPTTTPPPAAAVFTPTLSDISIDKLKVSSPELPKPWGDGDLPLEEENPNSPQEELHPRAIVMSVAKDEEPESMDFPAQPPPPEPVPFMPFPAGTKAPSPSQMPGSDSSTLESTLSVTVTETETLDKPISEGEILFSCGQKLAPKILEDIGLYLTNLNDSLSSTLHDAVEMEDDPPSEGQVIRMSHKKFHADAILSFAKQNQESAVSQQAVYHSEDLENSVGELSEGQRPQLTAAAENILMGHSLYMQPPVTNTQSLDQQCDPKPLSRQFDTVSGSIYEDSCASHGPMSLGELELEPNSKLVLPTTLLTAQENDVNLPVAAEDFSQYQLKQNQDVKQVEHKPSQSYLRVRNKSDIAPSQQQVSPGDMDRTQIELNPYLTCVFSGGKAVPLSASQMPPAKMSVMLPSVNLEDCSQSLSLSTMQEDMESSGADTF
UniProt Q9BYU1: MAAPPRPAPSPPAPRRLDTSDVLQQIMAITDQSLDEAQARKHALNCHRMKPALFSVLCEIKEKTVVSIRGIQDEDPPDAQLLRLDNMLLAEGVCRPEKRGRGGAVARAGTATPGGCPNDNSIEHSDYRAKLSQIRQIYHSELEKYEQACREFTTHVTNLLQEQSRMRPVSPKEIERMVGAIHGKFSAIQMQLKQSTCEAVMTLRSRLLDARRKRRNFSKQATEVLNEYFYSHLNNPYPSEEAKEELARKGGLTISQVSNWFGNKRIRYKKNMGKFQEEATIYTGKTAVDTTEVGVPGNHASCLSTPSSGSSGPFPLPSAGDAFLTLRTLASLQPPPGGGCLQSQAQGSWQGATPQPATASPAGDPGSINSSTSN
UniProt Q9BXK5, whole entry: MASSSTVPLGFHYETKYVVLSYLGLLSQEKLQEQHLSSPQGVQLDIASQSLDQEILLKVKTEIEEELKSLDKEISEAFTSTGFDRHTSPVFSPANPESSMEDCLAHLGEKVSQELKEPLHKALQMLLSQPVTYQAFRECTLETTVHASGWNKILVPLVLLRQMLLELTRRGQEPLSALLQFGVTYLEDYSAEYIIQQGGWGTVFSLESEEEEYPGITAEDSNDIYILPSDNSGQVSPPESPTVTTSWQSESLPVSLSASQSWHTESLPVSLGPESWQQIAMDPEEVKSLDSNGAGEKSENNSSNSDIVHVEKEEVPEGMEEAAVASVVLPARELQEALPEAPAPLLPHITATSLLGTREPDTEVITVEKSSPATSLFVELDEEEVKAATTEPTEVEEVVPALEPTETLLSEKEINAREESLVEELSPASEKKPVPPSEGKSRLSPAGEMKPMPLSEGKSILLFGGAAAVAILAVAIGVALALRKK
UniProt Q9BY41: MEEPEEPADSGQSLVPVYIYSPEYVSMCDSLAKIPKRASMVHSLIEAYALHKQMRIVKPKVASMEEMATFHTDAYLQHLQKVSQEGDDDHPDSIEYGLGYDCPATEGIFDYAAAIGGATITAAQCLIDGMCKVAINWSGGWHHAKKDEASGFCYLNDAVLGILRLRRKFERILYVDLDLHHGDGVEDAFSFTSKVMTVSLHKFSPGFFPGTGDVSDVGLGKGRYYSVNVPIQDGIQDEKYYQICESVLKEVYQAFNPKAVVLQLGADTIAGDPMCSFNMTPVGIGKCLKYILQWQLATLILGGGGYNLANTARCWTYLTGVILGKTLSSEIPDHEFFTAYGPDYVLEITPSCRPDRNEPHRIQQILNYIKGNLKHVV
UniProt Q9BZK7: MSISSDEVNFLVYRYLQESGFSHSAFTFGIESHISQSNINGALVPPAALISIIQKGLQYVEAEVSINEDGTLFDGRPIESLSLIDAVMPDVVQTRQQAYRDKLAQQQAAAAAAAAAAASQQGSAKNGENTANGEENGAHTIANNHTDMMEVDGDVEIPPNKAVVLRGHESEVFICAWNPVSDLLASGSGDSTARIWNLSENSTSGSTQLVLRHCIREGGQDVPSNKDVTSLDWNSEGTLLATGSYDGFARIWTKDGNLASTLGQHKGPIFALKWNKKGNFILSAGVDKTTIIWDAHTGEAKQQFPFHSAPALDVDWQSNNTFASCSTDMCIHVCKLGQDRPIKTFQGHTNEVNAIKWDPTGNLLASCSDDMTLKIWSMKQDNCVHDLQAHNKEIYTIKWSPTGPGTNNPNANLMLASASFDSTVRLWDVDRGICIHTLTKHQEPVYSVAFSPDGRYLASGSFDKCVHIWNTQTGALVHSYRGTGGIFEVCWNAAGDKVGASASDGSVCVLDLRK
UniProt Q9BVC3, whole entry: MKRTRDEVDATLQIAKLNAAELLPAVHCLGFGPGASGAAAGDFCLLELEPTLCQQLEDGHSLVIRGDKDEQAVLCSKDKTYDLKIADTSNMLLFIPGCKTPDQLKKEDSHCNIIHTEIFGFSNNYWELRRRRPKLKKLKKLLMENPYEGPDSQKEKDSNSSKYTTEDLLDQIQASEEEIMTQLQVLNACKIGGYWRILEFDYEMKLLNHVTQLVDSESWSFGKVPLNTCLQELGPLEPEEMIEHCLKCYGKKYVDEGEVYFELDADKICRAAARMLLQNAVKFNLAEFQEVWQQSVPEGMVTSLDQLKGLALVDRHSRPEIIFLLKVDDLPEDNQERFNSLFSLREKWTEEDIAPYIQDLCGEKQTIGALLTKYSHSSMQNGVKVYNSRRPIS
UniProt Q9BXI6: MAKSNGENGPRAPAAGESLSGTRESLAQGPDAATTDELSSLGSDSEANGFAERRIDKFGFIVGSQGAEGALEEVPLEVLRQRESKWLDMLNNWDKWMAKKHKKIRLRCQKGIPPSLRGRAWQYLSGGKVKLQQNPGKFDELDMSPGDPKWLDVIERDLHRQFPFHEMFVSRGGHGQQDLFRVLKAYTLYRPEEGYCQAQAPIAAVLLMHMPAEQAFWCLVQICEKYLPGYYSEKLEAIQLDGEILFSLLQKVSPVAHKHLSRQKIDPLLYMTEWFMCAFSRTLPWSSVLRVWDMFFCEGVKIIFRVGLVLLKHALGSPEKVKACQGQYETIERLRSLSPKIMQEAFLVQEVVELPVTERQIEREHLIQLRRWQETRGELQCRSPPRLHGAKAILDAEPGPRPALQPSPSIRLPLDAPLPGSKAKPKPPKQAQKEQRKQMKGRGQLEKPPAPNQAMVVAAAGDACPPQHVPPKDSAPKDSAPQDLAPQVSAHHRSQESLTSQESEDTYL

Compound in this test: Cc1nc(Nc2ncc(C(=O)Nc3c(C)cccc3Cl)s2)cc(N2CCN(CCO)CC2)n1 [dasatinib]
Briefly: log2 fold change of tryptic peptide abundance, ligand vs vehicle (limited proteolysis) (log2 ratio); higher = more trypsin-susceptible (destabilized). The following applies: ligand concentration: 5 uM; sample: K562 cleared lysate.

Turning to “ARHGAP39 (peptide sequence: SHNVDLPESR, peptide start residue: 11) (UniProt Q9C0H5)”, the log2 fold change was found to be 1.04.
As for “KIAA0586 (peptide sequence: LPDLPQNSVK, peptide start residue: 449) (UniProt Q9BVV6)”, the log2 fold change is 0.284.
“UniProt Q9BYU1 (peptide sequence: FSAIQMQLK, peptide start residue: 219)”: the log2 fold change is -0.0257.
The figure for “BCL2L13 (peptide sequence: KPVPPSEGK, peptide start residue: 432) (UniProt Q9BXK5)” is 0.411.
“HDAC8 (peptide sequence: RASMVHSLIEAYALHK, peptide start residue: 37) (UniProt Q9BY41)”: the log2 fold change came to 0.117.
On to “TBL1XR1 (peptide sequence: GICIHTLTK, peptide start residue: 432) (UniProt Q9BZK7)”, for which the log2 fold change is -0.277.
As to “DSCC1 (peptide sequence: TRDEVDATLQIAK, peptide start residue: 4) (UniProt Q9BVC3)”, the log2 fold change worked out at 0.136.
“TBC1D10A (peptide sequence: AWQYLSGGK, peptide start residue: 120) (UniProt Q9BXI6)”: the log2 fold change is 0.327.

Source of the values: the supplement of paper PMC12819154, “High-throughput peptide-centric local stability assay extends protein–ligand identification to membrane proteins, tissues and bacteria” (Nature Structural & Molecular Biology, 2025).
